Among all 220,000 compounds or so, about 770 (0.35%) were called active. Inconclusive means that the source gave no clear call. Such entries were picked first, then a sample of the others. Cut-off read from the data, not from the text of the source: active = binding response below about 49% or above about 150%; inconclusive = no clear call, values can overlap the other calls; inactive = in between.
Target: Guanine nucleotide-binding protein G(o) subunit alpha (Homo sapiens) (UniProt P09471)
Assay: RGS7-Galphao binding modulators, primary screen, biochemical, multiplexed bead flow cytometry (AID 1439);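 note: fluorescent Galphao held in activated GDP-AlF4 state binding bead-coupled RGS7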
Conditions: at 10 µM, actives lie on both sides

Chains of the proteins cited; added tags and fusions are not shown.
UniProt P09471, whole entry, looked up: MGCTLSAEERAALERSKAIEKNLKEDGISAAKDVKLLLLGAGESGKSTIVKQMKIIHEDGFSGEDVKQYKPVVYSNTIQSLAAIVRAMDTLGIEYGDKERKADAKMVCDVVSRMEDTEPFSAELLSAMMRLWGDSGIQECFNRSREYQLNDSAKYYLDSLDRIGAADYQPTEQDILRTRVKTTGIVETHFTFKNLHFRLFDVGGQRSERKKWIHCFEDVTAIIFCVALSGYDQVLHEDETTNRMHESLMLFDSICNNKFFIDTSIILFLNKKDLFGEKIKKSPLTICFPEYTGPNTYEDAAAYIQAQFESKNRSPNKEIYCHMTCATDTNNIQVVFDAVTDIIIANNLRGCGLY

Structure (SMILES) | binding response (% of control)
CCOC(=O)C(NC(C)=O)(Nc1ccc(S(=O)(=O)Nc2ncccn2)cc1)C(F)(F)F (stereo not drawn) | inconclusive: 78.8%
COCCCNC(=O)CSC1=Nc2ccccc2C2=NC(c3ccccc3)C(=O)N12 (stereo not drawn) | inactive: 122%
Cc1cc(F)ccc1S(=O)(=O)Nc1ccccc1C(=O)NCc1cccnc1 | inconclusive: 107%
Cc1ccc(-c2cc(Cc3ccncc3)c(=O)[nH]n2)cc1 | inconclusive: 97%
O=C(CSc1ccc2ccccc2c1)NC1CCCc2ccccc21 (stereo not drawn) | inactive: 97.9%
O=Cc1c(N2CCC3(CC2)OCCO3)nc2ccccn2c1=O | inconclusive: 431%
COc1ccc(/C=C/C(=O)NC(=S)Nc2ccc(S(=O)(=O)Nc3nccnc3OC)cc2)cc1 | inactive: 98.3%
CC(C)(C)S(=O)(=O)c1cnc(N2CCCCC2)nc1N | inconclusive: 82.3%
N#CCc1nn2c3c(cnc2c1C#N)C(=O)CCC3 | inconclusive: 102%
Cc1ccc(C2C(/C=C3/SC(=S)NC3=O)=C(c3cccs3)Oc3ccccc32)cc1 (stereo not drawn) | inactive: 104%
N#CCc1nn(-c2ccccc2)c2ncnc(N)c12 | inconclusive: 94.1%
O=C(O)c1ccc(N/N=C/C2=C(N3CCOCC3)C(=C\c3ccccc3)/CC2)cc1 | inconclusive: 119%
Cc1ccccc1CS(=O)(=O)c1nnc([C@H](Cc2ccccc2)NC(=O)OC(C)(C)C)o1 | inactive: 132%
CC(=O)Nc1ccc(OC(=O)c2cc3cc(Br)ccc3oc2=O)cc1 | inactive: 96.3%
COc1cc(/C=N/N=C/c2c[nH]c(=O)c(C#N)c2Nc2ccccc2)ccc1O | inconclusive: 113%
O=C(CSC1CN(C(c2ccccc2)c2ccccc2)C1)N/N=C/c1ccc(Cl)cc1Cl | inconclusive: 84%
c1ccc(-c2ccc3nnnn3n2)cc1 | inconclusive: 99.7%
Cc1ccc(CSCCNS(=O)(=O)c2ccc(C)cc2)cc1 | inactive: 99.8%
COc1ccccc1CNC(=O)CSc1nc2nc(C)cc(C)n2n1 | inactive: 85.3%
CN1CCN(c2nnc(-c3cccs3)c3ccccc23)CC1 | inconclusive: 85.8%
O=C(O)CSc1nnc(-c2cccc(S(=O)(=O)N3CCOCC3)c2)n1-c1cccc(Cl)c1 | inconclusive: 123%
CC1=NNC(=O)C1CCC(=O)N/N=C/c1ccccc1 (stereo not drawn) | inconclusive: 113%

Some of these compounds in order of count of non-hydrogen atoms, smallest number first.
Structure (SMILES) | binding response (% of control)
N#CCc1nn2c3c(cnc2c1C#N)C(=O)CCC3 | inconclusive: 102%
Cc1ccc(CSCCNS(=O)(=O)c2ccc(C)cc2)cc1 | inactive: 99.8%
O=C(O)c1ccc(N/N=C/C2=C(N3CCOCC3)C(=C\c3ccccc3)/CC2)cc1 | inconclusive: 119%

Next part

Structure (SMILES) | binding response (% of control)
CC(=O)NC(CSC(CC(=O)c1ccco1)c1ccc(C)cc1)C(=O)O (stereo not drawn) | inconclusive: 97.2%
CCOC(=O)c1[nH]cnc1C(=O)Nc1ccccc1OC | inactive: 99.9%
Cc1ccc(Cl)c(OCCCN(C)Cc2ccccc2)c1 | inconclusive: 113%
CC(=O)Nc1ccc(-c2csc(NNC(=O)c3ccccc3)n2)cc1 | inconclusive: 94.1%
O=C1CC(c2ccccc2)=Nc2ccc(Br)cc2N1 | inconclusive: 91.2%
COc1cc(O)c(C(CC(=O)N2CCCC(C)C2)c2ccc(N(C)C)cc2)c(OC)c1 (stereo not drawn) | inconclusive: 129%
Cc1nc2ccccc2c2c1CC(C(C)(Cl)Br)O2 (stereo not drawn) | inconclusive: 99.7%
O=C(CCN1C(=O)c2cccc3cccc(c23)C1=O)NCc1cccnc1 | inconclusive: 114%
COCCN1Cc2cccc(C(=O)NCc3cccs3)c2C1=O | inactive: 78.2%
CSc1nnc(SCc2nc3sc(C(=O)O)c(C)c3c(=O)[nH]2)s1 | inconclusive: 101%
O=C(COc1ccc(Cl)cc1Cl)c1ccc[nH]1 | inconclusive: 163%
Cc1ccc(S(=O)(=O)N2CCOCC2)cc1NC(=O)c1cc(-c2ccccn2)nc2ccccc12 | inconclusive: 95.5%
CCNC(=O)CC1S/C(=N/N=C(\C)c2ccccc2)NC1=O (stereo not drawn) | inconclusive: 120%
CN(Cc1ccccc1)C1=CC(=[N+]2CCCC2)CC(C)(C)C1 | inconclusive: 85%
CS(=O)(=O)Nc1ccc(C(=O)Nc2ccccc2Sc2ccccc2)cc1 | inactive: 103%
O=C(CCNC(=O)c1ccco1)Nc1ccccc1N1CCOCC1 | inactive: 94.7%
CCOc1ccc(NC(=S)NNC(=S)Nc2cccc(C(F)(F)F)c2)cc1 | inconclusive: 34.9%
COP(=O)(CC(=O)c1ccccc1)CC(=O)c1ccccc1 | inconclusive: 94%
Cc1ccsc1/C=N/NC(=O)C1C(=O)NCC1c1ccccc1 (stereo not drawn) | inconclusive: -6.69%
COc1ccc(C2CC(c3ccccc3)=NN2C(=S)Nc2ccccc2)cc1 (stereo not drawn) | inactive: 109%
COc1ccccc1/C=C/C(=O)NCc1ccccn1 | inconclusive: 85.4%
CCC(C)c1ccccc1NC(=O)C(C)N(C)Cc1cccc(OC)c1 (stereo not drawn) | inconclusive: 121%

Structure (SMILES) | binding response (% of control)
CC1CCN(C(=O)C2CCC(CNc3c(N4CCCCC4)c(=O)c3=O)CC2)CC1 (stereo not drawn) | inconclusive: 115%
CCCCNS(=O)(=O)c1ccc(NC(=O)Cc2ccccc2[N+](=O)[O-])cc1 | inactive: 102%
O=C(c1cnn(C(=O)c2cccc(S(=O)(=O)N3CCOCC3)c2)c1)c1ccccc1O | inconclusive: 110%
CCOc1ncccc1C(=O)Nc1nnc(C2CC2)s1 | inconclusive: 111%
CC(Nc1nc(N2CCNCC2)nc2ccccc12)c1ccccc1 (stereo not drawn) | inactive: 105%
COc1ccc(C(C)=O)cc1COC(=O)c1cc(C)nc2ccccc12 | inconclusive: 90.6%
Cc1csc2c(N3CCN(C(=O)Nc4ccc(Cl)c(Cl)c4)CC3)ncnc12 | inconclusive: 118%
COC(=O)c1cnc(N2CCCN(S(=O)(=O)c3ccc(C(F)(F)F)cc3)CC2)nc1C(F)(F)F | inconclusive: -50.6%
O=C(C1CCCCC1)N1CCN=C1SCc1cccc([N+](=O)[O-])c1 | inactive: 96.8%
C/C(=N/NC(=O)C1COc2ccccc2O1)c1ccc(Br)s1 (stereo not drawn) | inconclusive: 49.8%
O=C(CCNc1n[nH]c(=O)[nH]c1=O)N/N=C\c1cccc(OCc2ccccc2)c1 | inconclusive: 104%
COc1ccc(CNC(=O)c2c([S-])n(-c3ccc(C)cc3)c3cccc[n+]23)cc1 | inconclusive: 121%
O=C(NCc1nc2ccccc2[nH]1)C1=C[C@H](c2csc3ccccc23)C[C@H](OCc2ccc(CO)cc2)O1 | inconclusive: 114%
Fc1ccc(Cn2nnnc2C(c2ccc(Cl)cc2)N2CCSCC2)cc1 (stereo not drawn) | inactive: 100%
O=C(c1cnsn1)N1CCN(c2ccccc2)CC1 | active: 248% [activator]
CC(/C=C1\SC(=S)N(CCCC(=O)Nc2ccc(C(=O)O)cc2)C1=O)=C\c1ccccc1 | inactive: 99.3%
Cc1[nH]c(=O)c(C#N)c(C)c1[N+](=O)[O-] | inconclusive: 72.3%
Cc1cc(C)c(OCC(O)CN2CCN(c3ccccn3)CC2)c(C)c1 (stereo not drawn) | inconclusive: 95.8%
CSc1ccccc1NC(=O)CN1CCN(Cc2ccccc2)CC1 | inactive: 98.5%
C(#CC1CCCCC1)c1ccc2c(c1)COc1c3ccccc3nn1-2 | inconclusive: 120%
CN(C)C(CNC(=O)c1ccc(S(=O)(=O)N(C)C)cc1)Cc1ccccc1 (stereo not drawn) | inconclusive: 99.3%
CCOC(=O)/C(=N\Nc1ccccc1Cl)N(C)C1CCCCC1 | inconclusive: 90.2%

Structure (SMILES) | binding response (% of control)
CCCCNC(=O)C(c1ccc(OCC(=O)OC)c(C(=O)OC)c1)N(CCc1c[nH]c2ccccc12)C(=O)CCCCCN1C(=O)NC(c2ccc(-c3ccccc3)cc2)C(C(=O)OCc2ccccc2)=C1C (stereo not drawn) | inconclusive: 127%
CCN(CC)C(=O)Oc1ccnc2cc(Cl)ccc12 | inconclusive: 101%
CCOC(=O)C1=C(C)Nc2nc3ccccc3n2C1c1ccc(O)cc1 (stereo not drawn) | inconclusive: 52%
COc1cccc(CN(C)Cc2nc(Cc3ccccc3Cl)no2)c1 | inactive: 99.2%
CCc1ccc(OCC(=O)Nc2ncc3c(n2)CC(C)(C)CC3=O)cc1 | inactive: 98.1%
CC(=O)c1sc(NC(=O)C2=NN(c3ccccc3)C(=O)CC2)nc1C | inconclusive: 106%
O=C(NCc1cccc(C(F)(F)F)c1)C1CC(c2ccc(C(F)(F)F)cc2)=NO1 (stereo not drawn) | inconclusive: 69.8%
CC(C)(C)n1cnnc1Sc1ccc([N+](=O)[O-])cn1 | inconclusive: 80.5%
CC1(C)CC(=O)C(C=NCCN2CCN(CC(=O)Nc3ccc(F)cc3)CC2)=C(O)C1 | inconclusive: 113%
O=C(CN1CCOCC1)n1c2ccccc2c2ccccc21 | inactive: 99.7%
O=C(NCCCCc1ccccc1)C1CC(c2cc(C(F)(F)F)cc(C(F)(F)F)c2)=NO1 (stereo not drawn) | inconclusive: 80.4%
COC(=O)c1ccc(COc2ccccc2/C=N/NC(=O)c2cccnc2)cc1 | inactive: 96.3%
COc1ccc(NC(=O)C(=S)NC2CCCCC2)cc1 | inconclusive: 88.2%
C/C=C(/C)C(=O)Nc1cccc(C2=NOC3(C2)C[C@H](C(N)=O)N(C(=O)Cc2ccc([N+](=O)[O-])cc2)C3)c1 (stereo partly drawn) | inconclusive: 149%
COc1cc(C(C(=O)NC2CCCC2)N(C(=O)Cc2cccs2)C2CC2)cc(OC)c1OC (stereo not drawn) | inconclusive: 119%
COc1ccc(CCNC(=O)CNC(=O)Cn2ccc3ccccc3c2=O)cc1OC | inconclusive: 95%
Fc1cccc2sc(Nc3nc4ccccc4s3)nc12 | inactive: 104%
Cc1ccc(C)c2[nH]c(=O)c(CN(Cc3ccco3)C(=S)NCC3CCCO3)cc12 (stereo not drawn) | inactive: 101%
Cc1ccc(-c2nn(-c3ccccc3)cc2/C=N/n2c(-c3cccs3)n[nH]c2=S)cc1 | inconclusive: 111%
N#Cc1nc(Cc2ccccc2)oc1NCCc1ccccc1 | inactive: 102%
Cc1nnc(NC(=O)C2CCN(S(=O)(=O)c3ccc(Cl)cc3)CC2)s1 | inactive: 100%
COc1ccccc1NC(=S)NNC(=O)c1nn(C)c(C)c1Cl | inactive: 98.2%

Source: PubChem BioAssay AID1439 (NMMLSC, 2008)
